Experimental data reported in paper PMC8290231 (Cancer Medicine, 2021).
Read-outs that look alike come from different tables or passages of the source.

Tests used:
Format in all cases: cell-based
[1] = test system: Ba/F3(+IL‐3); test: CCK-8 proliferation assay in parental Ba/F3 cells; settings: Mus musculus, read-out: IC50 (μΜ) Ba/F3(+IL‐3)
Description: (§1) The Ba/F3 cell lines stably expressing FGFR1, FGFR1‐V561M, FGFR1‐V561F, FGFR1‐K656N, and FGFR1‐K656E were self‐established through electroporation pCDNA3.1‐TEL plasmids using the Amaxa Cell Line Nucleofector Kit V (Lonza, Cologne, Germany). Stable cell lines were selected by G418 (Merck, USA) and then withdrawal of IL‐3 (R&D). […] Parental Ba/F3 cells were maintained in RPMI 1640 supplemented with 10% FBS, 100 U/ml of penicillin, […] of streptomycin, and 10 ng/ml of IL‐3, while all Ba/F3 stable cell lines were cultured in the same medium without IL‐3.
(§2) Cells were seeded in 96‐well plate in complete medium (1000–6000 cells/well) and cultured for overnight. Then the cells were exposed to gradient concentrations (0.0005–10 μM) of compounds. Cell proliferation was analyzed by Cell Counting Kit 8 (CK04, Dojindo Laboratories, Japan) after co‐incubation for a further 72 h. IC50 values were calculated by fitting of concentration–response curves using GraphPad Prism 8.01 software. Each assay was repeated at least three times.
(§3) There is, however, no commercially available FGFR1 mutant kinase to validate this. Therefore, we constructed Ba/F3 model cells stably expressing FGFR1‐WT, K656E, K656N, V561M, and V561F mutations.

[2] = test system: FGFR1 signal pathway in Ba/F3‐FGFR1‐V561M; test: Western blot of FGFR1 signal pathway; settings: 300 nM
Description: (§4) Cells were treated with different concentrations of compound or DMSO for indicated time. Then, cells were lysed with 1 × SDS sample lysis buffer (recommended by CST). […] After blocking with 5% BSA in TBST solution (0.5% Tween‐20) at room temperature for 4 hrs, the membranes were incubated with the corresponding primary antibody (1:2000–1:200) at 4℃ overnight. After washing with TBST for 3–5 times, the HRP‐conjugated secondary antibodies were incubated for 2 hrs. The protein signals were detected with Amersham Imager 600 system (GE, Boston, MA, USA) using an ECL western blotting detection kit (Thermo Fisher Scientific, Waltham, MA, USA).
(§5) Cell lysates were separated by sodium dodecyl sulfate‐polyacrylamide gel electrophoresis (SDS‐PAGE) and analyzed by western blot for phosphorylated FGFR1, FGFR1, phosphorylated FRS2, FRS2, phosphorylated AKT (Ser473), AKT, phosphorylated Erk, and Erk. GAPDH was used as a control

[3] = test system: FGFR1 signal pathway in Ba/F3‐FGFR1‐V561F; test: Western blot of FGFR1 signal pathway; settings: 300 nM
Description: as §4, §5

[4] = test system: Ba/F3‐FGFR1‐K656N; test: CCK-8 proliferation assay in Ba/F3 stable cells; settings: Mus musculus, BaF3, 72 h, read-out: IC50 (μΜ) Ba/F3‐FGFR1‐K656N
Description: as §1, §2, §3

[5] = test system: Ba/F3‐FGFR1‐V561F; test: CCK-8 proliferation assay in Ba/F3 stable cells; settings: Mus musculus, BaF3, 72 h, read-out: IC50 (μΜ) Ba/F3‐FGFR1‐V561F
Description: as §1, §2, §3

[6] = test system: Ba/F3‐FGFR1‐K656E; test: CCK-8 proliferation assay in Ba/F3 stable cells; settings: Mus musculus, BaF3, 72 h, read-out: IC50 (μΜ) Ba/F3‐FGFR1‐K656E
Description: as §1, §2, §3

[7] = test system: Ba/F3‐FGFR1; test: CCK-8 proliferation assay in Ba/F3 stable cells; settings: Mus musculus, BaF3, 72 h, read-out: IC50 (μΜ) Ba/F3‐FGFR1
Description: as §1, §2, §3

[8] = test system: Ba/F3‐FGFR1‐V561M; test: CCK-8 proliferation assay in Ba/F3 stable cells; settings: Mus musculus, BaF3, 72 h, read-out: IC50 (μΜ) Ba/F3‐FGFR1‐V561M
Description: as §1, §2, §3

`COc1cc(OC)cc(N(CCNC(C)C)c2ccc3ncc(-c4cnn(C)c4)nc3c2)c1` [Erdafitinib] was tested, and the IC50 ([1]; BaF3, parental cells with IL-3, CCK-8, 72 h) was 3.4 ± 0.032 µM.
`C=CC(=O)N1CC[C@H](n2nc(C#Cc3cc(OC)cc(OC)c3)c3c(N)ncnc32)C1` [TAS120] was tested, and the IC50 ([1]; BaF3, 72 h) was > 10 µM, the “activation of FGFR1 and its signal pathway” value [2] was “no effects” and the “activation of FGFR1 and its signal pathway” value [3] was “no effects”. It also gave an IC50 [4] of 0.01 ± 0.0022 µM, an IC50 [5] of 1 ± 0.067 µM and an IC50 [6] of 0.017 ± 0.0022 µM. For the same molecule, the IC50 [7] was 0.0068 ± 0.0006 µM and the IC50 [8] was 1.46 ± 0.12 µM.
